Laboratory results reported in PubChem BioAssay AID328 (DTP/NCI, 2004).
The list is a part of this screen's results and no random one: it gathers tests that were run many times, whatever their T/C, doses with no T/C, and many T/C values between a quarter and a half above the control. Further doses and runs are listed elsewhere. T/C: endpoint of the treated group in % of that of the vehicle group. Some entries give survivors of the animals treated and no T/C: the source files T/C as zero there, which appears to mark a toxic dose or a test without result, not a measured value. Some doses without a T/C left all or most animals alive at the check, yet need not have been tolerated: the source hardly ever lists a survival T/C far under the control, and the zero likely stands for such cases as well. Counts of survivors are from the toxicity check (mostly the fifth day) where no day follows; animals may have died later. Schedule codes are those of the source, read here as Q, the interval in days (D) or hours (H), X, the number of doses. Some entries hold several experiments; the results are listed from low to high. For survival time, the PubChem record calls one and a half times the control and up active, and a quarter to a half above the control has no call in these data; cut-offs in other NCI protocols can differ. Some T/C values are followed by the survivors on the day toxicity was checked, most often the fifth; without a count, all were alive then.

Tested on: BDF1 mice, P388 leukemia ip, median survival T/C
Assay: NCI In Vivo Anticancer Drug Screen. Data for tumor model P388 Leukemia (intraperitoneal) in B6D2F1 (BDF1) mice
Details: T/C endpoint: median survival time, higher T/C = longer survival
How it was run: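 Survival ratio, drug arm over vehicle arm, in mice with a transplanted tumour.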

[1] = dose: 200.0 mg/kg/injection, schedule: Q01DX009 (ip), vehicle: water
[2] = dose: 200.0 mg/kg/injection, schedule: Q01DX009 (ip), vehicle: saline with Tween-80
[3] = dose: 100.0 mg/kg/injection, schedule: Q01DX009 (ip), vehicle: saline with Tween-80
[4] = dose: 50.0 mg/kg/injection, schedule: Q01DX009 (ip), vehicle: saline
[5] = dose: 100.0 mg/kg/injection, schedule: Q01DX009 (ip), vehicle: saline
[6] = dose: 37.5 mg/kg/injection, schedule: Q01DX009 (ip), vehicle: Klucel (hydroxypropylcellulose) (HPC)

## O=N[O-].O=N[O-].[Co].[NH-]CC[N-]CCO.[NH-]CC[N-]CCO
dose: 25.0 mg/kg/injection, schedule: Q01DX009 (ip), vehicle: water
  T/C: 94 [5 of 6 alive], 97, 118, 129 % of control
dose: 50.0 mg/kg/injection, schedule: Q01DX009 (ip), vehicle: water
  survivor count: 5 of 6
dose: 100.0 mg/kg/injection, schedule: Q01DX009 (ip), vehicle: water
  survivor count: 1 of 6 and 3 of 6
[1]
  survivor count: 1 of 6

## CN1c2ccc(Cl)cc2C(=O)NC1c1ccc([N+](=O)[O-])s1 (stereo not drawn)
[2]
  T/C: 136 % of control
dose: 400.0 mg/kg/injection, schedule: Q01DX009 (ip), vehicle: saline with Tween-80
  survivor count: 2 of 6

## C=C(C)C(=O)NCCCCCC(=O)Oc1ccc([N+](=O)[O-])cc1
[3]
  survivor count: 6 of 6

## O=c1[nH]nc(-c2ccccc2)nc1/C(=N\Nc1ccccc1)c1ccccc1
dose: 50.0 mg/kg/injection, schedule: Q01DX009 (ip), vehicle: saline with Tween-80
  survivor count: 6 of 6
[3]
  survivor count: 6 of 6
[2]
  survivor count: 5 of 6

## CN(C)CCC(=O)c1ccccc1
[4]
  survivor count: 0 of 6
[5]
  survivor count: 0 of 6

## CC(C)C(C=O)C(O)(C(F)(F)F)C(F)(F)Cl (stereo not drawn)
[4]
  survivor count: 6 of 6

## N#CC(C#N)c1nc2cccnc2s1
dose: 400.0 mg/kg/injection, schedule: Q04DX003 (ip), vehicle: saline with Tween-80
  survivor count: 1 of 6

## Cc1nc(-c2ccc(N=Cc3ccc(N(CCOS(C)(=O)=O)CCOS(C)(=O)=O)cc3C)cc2)cs1
[6]
  T/C: 133 % of control

## N#CSc1ncnc2nc[nH]c12
dose: 6.0 mg/kg/injection, schedule: Q01DX009 (ip), vehicle: alkali diluted with saline
  T/C: 125 % of control
dose: 25.0 mg/kg/injection, schedule: Q04DX003 (ip), vehicle: alkali diluted with saline
  survivor count: 2 of 6
dose: 50.0 mg/kg/injection, schedule: Q04DX003 (ip), vehicle: alkali diluted with saline
  survivor count: 0 of 6

## CCc1cccc2c(NCCCCCCNc3c4ccccc4nc4c(CC)cccc34)c3ccccc3nc12
dose: 1.25 mg/kg/injection, schedule: Q01DX009 (ip), vehicle: lactic acid
  T/C: 128 % of control
dose: 2.5 mg/kg/injection, schedule: Q01DX009 (ip), vehicle: lactic acid
  T/C: 143 % of control
dose: 10.0 mg/kg/injection, schedule: Q01DX009 (ip), vehicle: lactic acid
  survivor count: 6 of 6
dose: 20.0 mg/kg/injection, schedule: Q01DX009 (ip), vehicle: lactic acid
  survivor count: 4 of 6

## CCN(CC)c1cccc(N)c1
dose: 200.0 mg/kg/injection, schedule: Q01DX009 (sc), vehicle: olive oil, sesame oil, peanut oil
  survivor count: 0 of 6

## Cc1cc2c(oc1=O)C(=O)c1cccc(O)c1C2=O
dose: 1.5 mg/kg/injection, schedule: Q01DX009 (ip), vehicle: Klucel (hydroxypropylcellulose) (HPC)
  T/C: 132 % of control
dose: 2.3 mg/kg/injection, schedule: Q01DX009 (ip), vehicle: Klucel (hydroxypropylcellulose) (HPC)
  T/C: 141 % of control
dose: 3.6 mg/kg/injection, schedule: Q01DX009 (ip), vehicle: saline
  T/C: 129 % of control
dose: 5.4 mg/kg/injection, schedule: Q01DX009 (ip), vehicle: saline
  T/C: 128 % of control
dose: 8.2 mg/kg/injection, schedule: Q01DX009 (ip), vehicle: Klucel (hydroxypropylcellulose) (HPC)
  T/C: 128 % of control
dose: 12.0 mg/kg/injection, schedule: Q01DX009 (ip), vehicle: Klucel (hydroxypropylcellulose) (HPC)
  T/C: 127 % of control [5 of 6 alive]
dose: 18.75 mg/kg/injection, schedule: Q01DX009 (ip), vehicle: Klucel (hydroxypropylcellulose) (HPC)
  T/C: 144 % of control
[6]
  T/C: 141 % of control
dose: 75.0 mg/kg/injection, schedule: Q01DX009 (ip), vehicle: Klucel (hydroxypropylcellulose) (HPC)
  survivor count: 4 of 6
dose: 150.0 mg/kg/injection, schedule: Q01DX009 (ip), vehicle: Klucel (hydroxypropylcellulose) (HPC)
  survivor count: 2 of 6
dose: 300.0 mg/kg/injection, schedule: Q01DX009 (ip), vehicle: Klucel (hydroxypropylcellulose) (HPC)
  survivor count: 0 of 6

## C=C1C(=O)OC2CC(C)/C=C\C(=O)C(C)(O)C(O)C(O)C12 (stereo not drawn) (tested in a mixture with another compound)
dose: 100.0 mg/kg/injection, schedule: Q01DX001 (ip), vehicle: saline with Tween-80
  survivor count: 1 of 6
dose: 200.0 mg/kg/injection, schedule: Q01DX001 (ip), vehicle: saline with Tween-80
  survivor count: 0 of 6
dose: 400.0 mg/kg/injection, schedule: Q01DX001 (ip), vehicle: saline with Tween-80
  survivor count: 0 of 6

## O=C(Oc1ccc([N+](=O)[O-])cc1)c1ccc(C[n+]2ccccc2)cc1
dose: 400.0 mg/kg/injection, schedule: Q04DX003 (ip), vehicle: saline
  survivor count: 1 of 6

## CN(N=O)C(=O)N[C@@H](C=O)[C@@H](O)[C@H](O)[C@H](O)CO
dose: 12.5 mg/kg/injection, schedule: Q01DX009 (ip), vehicle: other
  T/C: 128 % of control
dose: 17.0 mg/kg/injection, schedule: Q01DX009 (ip), vehicle: water
  T/C: 145 % of control
dose: 20.0 mg/kg/injection, schedule: Q01DX010 (ip), vehicle: other
  T/C: 131 % of control
dose: 25.0 mg/kg/injection, schedule: Q01DX009 (ip), vehicle: other
  T/C: 132 % of control
dose: 26.0 mg/kg/injection, schedule: Q01DX009 (ip), vehicle: water
  T/C: 142 and 143 % of control
dose: 39.0 mg/kg/injection, schedule: Q01DX009 (ip), vehicle: water
  T/C: 139 % of control
dose: 100.0 mg/kg/injection, schedule: Q01DX009 (ip), vehicle: other
  T/C: 125 % of control
dose: 130.0 mg/kg/injection, schedule: Q01DX009 (ip), vehicle: water
  survivor count: 7 of 8
dose: 160.0 mg/kg/injection, schedule: Q01DX010 (ip), vehicle: other
  survivor count: 6 of 6
dose: 200.0 mg/kg/injection, schedule: Q01DX009 (ip), vehicle: other
  survivor count: 9 of 10
[1]
  survivor count: 3 of 8 and 7 of 8

## CCc1nnc2ncccn12
[5]
  T/C: 129 % of control
dose: 200.0 mg/kg/injection, schedule: Q01DX009 (ip), vehicle: saline
  T/C: 127 % of control
dose: 400.0 mg/kg/injection, schedule: Q01DX009 (ip), vehicle: saline
  survivor count: 1 of 6 and 2 of 6

## S=C(N/N=C/c1ccccn1)Nc1ccccn1
dose: 100.0 mg/kg/injection, schedule: Q04DX003 (ip), vehicle: Klucel (hydroxypropylcellulose) (HPC)
  T/C: 135 % of control
dose: 200.0 mg/kg/injection, schedule: Q04DX003 (ip), vehicle: Klucel (hydroxypropylcellulose) (HPC)
  T/C: 135 % of control
dose: 400.0 mg/kg/injection, schedule: Q04DX003 (ip), vehicle: Klucel (hydroxypropylcellulose) (HPC)
  survivor count: 4 of 6

## C=CCCc1cc(OC)ccc1C(=O)C(C)C
[3]
  T/C: 137 % of control

## O=C1CN(c2ccccc2)CC(=O)N2Cc3ccccc3CN12
dose: 50.0 mg/kg/injection, schedule: Q01DX005 (ip), vehicle: saline with Tween-80
  survivor count: 5 of 5
dose: 200.0 mg/kg/injection, schedule: Q01DX005 (ip), vehicle: saline with Tween-80
  survivor count: 5 of 5
